# The other results are listed elsewhere or left out. Single values are uncertain, as repeats are few or missing.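 Imaging used 1,536-well plates; nuclei positive for cleaved PARP by antibody were divided by total DNA-stained nuclei to yield the apoptosis fraction. Doses for screening kept most cells viable, and cell lines differ markedly in resting and induced cleaved-PARP levels.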
# Tested on: WM451Lu
# Assay: cleaved PARP positive nuclei fraction relative to DMSO control; melanoma cells; higher = more apoptosis
# Conditions: library dose: low library concentration; 72 h
row,Compound,cleaved PARP positive nuclei fraction
1,"CN(c1ncccc1CNc1nc(Nc2ccc3c(c2)CC(=O)N3)ncc1C(F)(F)F)S(C)(=O)=O + O=C(O)c1ccc(-c2c[nH]c3ncc(-c4ccccc4)cc23)cc1C1CCCC1 [GSK650394] (first compound 0.08 µM, partner dose 0.16 µM)",189%
2,"NC(=O)c1ccc(N(C(N)=O)c2c(F)cccc2F)nc1-c1ccc(F)cc1F + COc1ccc(-c2ccc3c(N4CCOCC4)nc(N4C[C@@H](C)O[C@@H](C)C4)nc3n2)cc1CO [KU0063794] (first compound 0.4 µM, partner dose 0.02 µM)",22.4%
3,"NC1(c2ccc(-c3nc4ccn5c(=O)[nH]nc5c4cc3-c3ccccc3)cc2)CCC1 + CCCCCCCCCCCC1=C(O)C(=O)C=C(O)C1=O [Embelin] (first compound 0.4 µM, partner dose 1.2 µM)",75.2%
4,"NC(=O)c1ccc(N(C(N)=O)c2c(F)cccc2F)nc1-c1ccc(F)cc1F + CC1(C)NC(=O)N(c2ccc([N+](=O)[O-])c(C(F)(F)F)c2)C1=O [nilutamide] (first compound 0.4 µM, partner dose 1 µM)",172%
5,"COc1ccc(C2=N[C@@H](c3ccc(Cl)cc3)[C@@H](c3ccc(Cl)cc3)N2C(=O)N2CCNC(=O)C2)c(OC(C)C)c1 [Nutlin-3] + Cn1cncc1[C@@](N)(c1ccc(Cl)cc1)c1ccc2c(c1)c(-c1cccc(Cl)c1)cc(=O)n2C [tipifarnib] (first compound 0.1 µM, partner dose 0.01 µM)",71.6%
6,"CN(c1ncccc1CNc1nc(Nc2ccc3c(c2)CC(=O)N3)ncc1C(F)(F)F)S(C)(=O)=O + Cc1cc([N+](=O)[O-])ccc1NS(=O)(=O)c1cc(Cl)ccc1Cl [FH535] (first compound 0.08 µM, partner dose 1 µM)",47.7%
7,"CC(=O)O[C@@]12CO[C@@H]1C[C@H](O)[C@@]1(C)C(=O)[C@H](O)C3=C(C)[C@@H](OC(=O)[C@H](O)[C@@H](NC(=O)OC(C)(C)C)c4ccccc4)C[C@@](O)([C@@H](OC(=O)c4ccccc4)[C@H]21)C3(C)C [Docetaxel] + N#Cc1c(O)c2c(-c3ccc(-c4ccccc4O)cc3)csc2[nH]c1=O [A769662] (first compound 0.0001 µM, partner dose 2 µM)",187%
8,"CC(=O)O[C@@]12CO[C@@H]1C[C@H](O)[C@@]1(C)C(=O)[C@H](O)C3=C(C)[C@@H](OC(=O)[C@H](O)[C@@H](NC(=O)OC(C)(C)C)c4ccccc4)C[C@@](O)([C@@H](OC(=O)c4ccccc4)[C@H]21)C3(C)C [Docetaxel] + COc1ccc2c(c1)CCC1C2CCC2(C)C(NCCCCCCN3C(=O)C=CC3=O)CCC12 [U73122] (first compound 0.0001 µM, partner dose 0.4 µM)",276%
9,"CN(c1ncccc1CNc1nc(Nc2ccc3c(c2)CC(=O)N3)ncc1C(F)(F)F)S(C)(=O)=O + COc1cc(N2CCC(N3CCN(C)CC3)CC2)ccc1Nc1ncc(Cl)c(Nc2ccccc2S(=O)(=O)C(C)C)n1 [NVP-TAE684] (first compound 0.08 µM, partner dose 0.08 µM)",72.9%
10,"NC(=O)c1ccc(N(C(N)=O)c2c(F)cccc2F)nc1-c1ccc(F)cc1F + O=C(O)c1ccc(-c2c[nH]c3ncc(-c4ccccc4)cc23)cc1C1CCCC1 [GSK650394] (first compound 0.4 µM, partner dose 0.16 µM)",75.1%
11,"C[C@@H](N)c1ccc(C(=O)Nc2ccnc3[nH]ccc23)cc1 + Cc1cc(N2CCOCC2)cc2[nH]c(-c3c(NC[C@@H](O)c4cccc(Cl)c4)cc[nH]c3=O)nc12 [BMS536924] (first compound 0.4 µM, partner dose 0.2 µM)",44.2%
12,"CC(=O)O[C@@]12CO[C@@H]1C[C@H](O)[C@@]1(C)C(=O)[C@H](O)C3=C(C)[C@@H](OC(=O)[C@H](O)[C@@H](NC(=O)OC(C)(C)C)c4ccccc4)C[C@@](O)([C@@H](OC(=O)c4ccccc4)[C@H]21)C3(C)C [Docetaxel] + COc1ccc(-c2ccc3c(N4CCOCC4)nc(N4C[C@@H](C)O[C@@H](C)C4)nc3n2)cc1CO [KU0063794] (first compound 0.0001 µM, partner dose 0.02 µM)",305%
13,"CCCCCCCCc1ccc(CCC(N)(CO)CO)cc1 [fingolimod] + Cc1cc([N+](=O)[O-])ccc1NS(=O)(=O)c1cc(Cl)ccc1Cl [FH535] (first compound 2 µM, partner dose 1 µM)",56%
14,"CCCCCCCCc1ccc(CCC(N)(CO)CO)cc1 [fingolimod] + Cn1cc(/C=C2\C(=O)Nc3cccnc32)c2ccccc21 [GW441756] (first compound 2 µM, partner dose 0.4 µM)",62.3%
15,"Cn1cnc2c(F)c(Nc3ccc(Br)cc3Cl)c(C(=O)NOCCO)cc21 [selumetinib] + O=C(Nc1ccccc1)c1cc([N+](=O)[O-])ccc1Cl [GW9662] (first compound 0.015 µM, partner dose 2 µM)",34.6%
16,"COc1ccc(C2=N[C@@H](c3ccc(Cl)cc3)[C@@H](c3ccc(Cl)cc3)N2C(=O)N2CCNC(=O)C2)c(OC(C)C)c1 [Nutlin-3] + COc1ccc2c(c1)CCC1C2CCC2(C)C(NCCCCCCN3C(=O)C=CC3=O)CCC12 [U73122] (first compound 0.1 µM, partner dose 0.4 µM)",107%
17,"CS(=O)(=O)c1ccc(C(=O)Nc2ccc(Cl)c(-c3ccccn3)c2)c(Cl)c1 [vismodegib] + Cc1cc(N2CCOCC2)cc2[nH]c(-c3c(NC[C@@H](O)c4cccc(Cl)c4)cc[nH]c3=O)nc12 [BMS536924] (first compound 1 µM, partner dose 0.2 µM)",116%
18,"CC1(C)CCC(c2ccc(Cl)cc2)=C(CN2CCN(c3ccc(C(=O)NS(=O)(=O)c4ccc(N[C@H](CCN5CCOCC5)CSc5ccccc5)c(S(=O)(=O)C(F)(F)F)c4)cc3)CC2)C1 + Cc1cc(N2CCOCC2)cc2[nH]c(-c3c(NC[C@@H](O)c4cccc(Cl)c4)cc[nH]c3=O)nc12 [BMS536924] (first compound 0.4 µM, partner dose 0.2 µM)",79.7%
19,"CC(=O)O[C@@]12CO[C@@H]1C[C@H](O)[C@@]1(C)C(=O)[C@H](O)C3=C(C)[C@@H](OC(=O)[C@H](O)[C@@H](NC(=O)OC(C)(C)C)c4ccccc4)C[C@@](O)([C@@H](OC(=O)c4ccccc4)[C@H]21)C3(C)C [Docetaxel] + Cc1ccc(NC(=O)c2cccc(N(C)C)c2)cc1NC(=O)c1ccc(O)cc1 [ZM336372] (first compound 0.0001 µM, partner dose 2 µM)",159%
20,"C[C@@H](N)c1ccc(C(=O)Nc2ccnc3[nH]ccc23)cc1 + COc1cc(N2CCC(N3CCN(C)CC3)CC2)ccc1Nc1ncc(Cl)c(Nc2ccccc2S(=O)(=O)C(C)C)n1 [NVP-TAE684] (first compound 0.4 µM, partner dose 0.08 µM)",163%
21,"CCN(CC)CCNC(=O)c1c(C)[nH]c(/C=C2\C(=O)Nc3ccc(F)cc32)c1C [sunitinib] + O=c1cc(-c2cccc3c2Sc2ccccc2S3)oc(N2CCOCC2)c1 [KU55933] (first compound 0.4 µM, partner dose 1 µM)",75.3%
22,"C[C@]1(O)C[C@@H](c2nc(-c3ccc4ccc(-c5ccccc5)nc4c3)c3c(N)nccn32)C1 + O=C(Nc1ccccc1)c1cc([N+](=O)[O-])ccc1Cl [GW9662] (first compound 0.4 µM, partner dose 2 µM)",55.8%
23,"CCCCCCCCc1ccc(CCC(N)(CO)CO)cc1 [fingolimod] + NCC(=O)Nc1ccc(-n2nc(C(F)(F)F)cc2-c2ccc3c(ccc4ccccc43)c2)cc1 [OSU03012] (first compound 2 µM, partner dose 1 µM)",44.3%
24,"CC1(C)CCC(c2ccc(Cl)cc2)=C(CN2CCN(c3ccc(C(=O)NS(=O)(=O)c4ccc(N[C@H](CCN5CCOCC5)CSc5ccccc5)c(S(=O)(=O)C(F)(F)F)c4)cc3)CC2)C1 + CO[C@@H]1[C@H](N(C)C(=O)c2ccccc2)C[C@H]2O[C@]1(C)n1c3ccccc3c3c4c(c5c6ccccc6n2c5c31)C(=O)NC4 [Midostaurin] (first compound 0.4 µM, partner dose 0.08 µM)",78.8%
25,"C[C@]1(O)C[C@@H](c2nc(-c3ccc4ccc(-c5ccccc5)nc4c3)c3c(N)nccn32)C1 + Cc1cc([N+](=O)[O-])ccc1NS(=O)(=O)c1cc(Cl)ccc1Cl [FH535] (first compound 0.4 µM, partner dose 1 µM)",157%

# Taken from above.
# Entry of CN(c1ncccc1CNc1nc(Nc2ccc3c(c2)CC(=O)N3)ncc1C(F)(F)F)S(C)(=O)=O + Cc1cc([N+](=O)[O-])ccc1NS(=O)(=O)c1cc(Cl)ccc1Cl [FH535] (first compound 0.08 µM, partner dose 1 µM) under cleaved PARP positive nuclei fraction: 47.7%
# Entry of CCN(CC)CCNC(=O)c1c(C)[nH]c(/C=C2\C(=O)Nc3ccc(F)cc32)c1C [sunitinib] + O=c1cc(-c2cccc3c2Sc2ccccc2S3)oc(N2CCOCC2)c1 [KU55933] (first compound 0.4 µM, partner dose 1 µM) under cleaved PARP positive nuclei fraction: 75.3%

# From the supplement of paper PMC4604168 (melanoma cell lines)
